Experimental data: ChEMBL document CHEMBL4732263 (Bioorg Med Chem, 2021)
In brackets after ≈: the same amount, converted by molar mass.

The chains behind the UniProt entries cited, without tags or fusion partners. Where a name states a change or a piece, a line headed by the entry shows the natural chain unless it says otherwise.
UniProt Q12809: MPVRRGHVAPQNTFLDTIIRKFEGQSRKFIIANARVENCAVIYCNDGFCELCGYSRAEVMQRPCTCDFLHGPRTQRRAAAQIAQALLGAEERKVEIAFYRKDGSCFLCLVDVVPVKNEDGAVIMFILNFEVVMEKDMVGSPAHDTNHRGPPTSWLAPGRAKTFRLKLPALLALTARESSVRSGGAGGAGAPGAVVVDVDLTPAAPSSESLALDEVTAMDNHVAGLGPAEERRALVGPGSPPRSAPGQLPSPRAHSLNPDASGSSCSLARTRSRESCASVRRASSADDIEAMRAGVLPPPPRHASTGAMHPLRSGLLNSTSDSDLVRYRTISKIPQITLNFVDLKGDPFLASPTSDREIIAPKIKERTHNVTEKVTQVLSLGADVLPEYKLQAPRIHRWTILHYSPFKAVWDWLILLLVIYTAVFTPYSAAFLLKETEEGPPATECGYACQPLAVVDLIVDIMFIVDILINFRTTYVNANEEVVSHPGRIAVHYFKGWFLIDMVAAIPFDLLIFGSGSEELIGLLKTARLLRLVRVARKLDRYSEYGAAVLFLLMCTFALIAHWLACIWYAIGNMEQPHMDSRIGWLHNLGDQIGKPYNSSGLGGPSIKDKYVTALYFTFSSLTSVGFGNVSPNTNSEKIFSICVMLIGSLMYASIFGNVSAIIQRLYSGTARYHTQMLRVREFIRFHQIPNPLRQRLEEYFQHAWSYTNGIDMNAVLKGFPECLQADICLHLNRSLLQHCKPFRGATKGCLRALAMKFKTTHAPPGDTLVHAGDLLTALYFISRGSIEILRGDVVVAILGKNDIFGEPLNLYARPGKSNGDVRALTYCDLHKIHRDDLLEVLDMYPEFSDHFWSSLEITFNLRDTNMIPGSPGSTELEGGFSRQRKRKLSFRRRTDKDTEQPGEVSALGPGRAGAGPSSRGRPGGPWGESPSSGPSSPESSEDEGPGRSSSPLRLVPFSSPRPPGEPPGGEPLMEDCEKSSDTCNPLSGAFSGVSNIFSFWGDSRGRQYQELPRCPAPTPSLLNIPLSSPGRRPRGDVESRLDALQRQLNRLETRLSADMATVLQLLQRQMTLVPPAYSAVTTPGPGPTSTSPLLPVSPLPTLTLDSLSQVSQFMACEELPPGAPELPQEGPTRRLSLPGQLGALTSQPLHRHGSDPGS

Legend:
[1] = target: Voltage-gated inwardly rectifying potassium channel KCNH2 (Homo sapiens, UniProt Q12809)
physchem [2] = details: octanol/water, pH 7.4
physchem [3] = details: buffer, pH 2
physchem [4] = details: buffer, pH 6.5

## N=C(N)NC(=O)c1nc(-c2cc3ccccc3o2)c(N)nc1N
[1]
  IC50: 6.9 µM
Physchem [2]
  logD: 2.8
Physchem [3]
  solubility kinetic: > 100 µg/mL
Physchem [4]
  solubility kinetic: 6.3 µg/mL (≈ 20.2 µM)
